Experimental data: PubChem BioAssay AID1259254 (NCATS, 2017)

Aim: 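Gene knock-downs that lead to re-replication, shown by excess G2 DNA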 (primary screen)
Cell system: human HCT116 colorectal cancer cells
Knock-down reagent: single siRNA against human genes
Duration: 3 days
Detection: 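Imaged Hoechst DNA stain sorts each cell into a cycle phase by DNA amount; per plate, G2 fraction set to 0% for non-targeting and 100% for GMNN siRNA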
Direction: G2 robust z-score: higher = more G2 cells, more excess DNA replication
Active means: 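An siRNA counts as active if its G2 robust z-score lies at least 5 MADs above the screen median; here such calls match roughly 38% of GMNN control or more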
The deposit covers about 59,000 reagents; shown is a random part of them. About 1,550 of all reagents (2.6%) were called active. 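G2 share is only a proxy for re-replication; each gene was hit by three separate siRNAs, and active genes were retested.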 Entries without a mark were called inactive. Reagents against one gene are numbered here. Further read-outs or replicates are left out here. No sequences are given here. The record does not give: the amount of reagent.

G2 robust z-score, by gene and reagent
YWHAG (GeneID 7532): #1 -0.0259; #2 1.22; #3 1.96
NPTX2 (GeneID 4885): #1 1.11; #2 -0.789; #3 -0.0581
PSKH1 (GeneID 5681): #1 -0.404; #2 -0.25; #3 -0.749
CBX6 (GeneID 23466): #1 1.64; #2 -0.243; #3 -0.289
RHAG (GeneID 6005): #1 0.566; #2 -0.24; #3 1.27
SPTBN5 (GeneID 51332): #1 0.74; #2 -0.494; #3 -0.477
GALE (GeneID 2582): #1 -0.875; #2 0.188; #3 -0.0497

Quoted from the listing for reference:
G2 robust z-score, by gene and reagent
PSKH1 (GeneID 5681): #1 -0.404; #2 -0.25; #3 -0.749

Further records follow.
G2 robust z-score, by gene and reagent
SLC6A13 (GeneID 6540): #1 -1.06; #2 0.14; #3 1.44
UTS2B (GeneID 257313): #1 -1.33; #2 -0.771; #3 -0.6
VTN (GeneID 7448): #1 -1.53; #2 2.34; #3 -0.871
SUZ12 (GeneID 23512): #1 1.66; #2 1.63; #3 -0.353
TRPA1 (GeneID 8989): #1 -0.441; #2 1.54; #3 -1.05
E4F1 (GeneID 1877): #1 -0.19; #2 0.764; #3 0.667
MYH14 (GeneID 79784): #1 -0.989; #2 -1.19; #3 2.56
ETHE1 (GeneID 23474): #1 -0.362; #2 -1; #3 -0.477
CHD3 (GeneID 1107): #1 -0.756; #2 1.19; #3 1.27
